# Results reported in the supplement of paper PMC12067093, “Discovery and optimisation of a covalent ligand for TRIM25 and its application to targeted protein ubiquitination” (Chemical Science, 2025).
# Amino acid sequences for entries named in this document (tags omitted). A change or cut given only in a name is not applied to a line headed by its entry.
# UniProt P25098: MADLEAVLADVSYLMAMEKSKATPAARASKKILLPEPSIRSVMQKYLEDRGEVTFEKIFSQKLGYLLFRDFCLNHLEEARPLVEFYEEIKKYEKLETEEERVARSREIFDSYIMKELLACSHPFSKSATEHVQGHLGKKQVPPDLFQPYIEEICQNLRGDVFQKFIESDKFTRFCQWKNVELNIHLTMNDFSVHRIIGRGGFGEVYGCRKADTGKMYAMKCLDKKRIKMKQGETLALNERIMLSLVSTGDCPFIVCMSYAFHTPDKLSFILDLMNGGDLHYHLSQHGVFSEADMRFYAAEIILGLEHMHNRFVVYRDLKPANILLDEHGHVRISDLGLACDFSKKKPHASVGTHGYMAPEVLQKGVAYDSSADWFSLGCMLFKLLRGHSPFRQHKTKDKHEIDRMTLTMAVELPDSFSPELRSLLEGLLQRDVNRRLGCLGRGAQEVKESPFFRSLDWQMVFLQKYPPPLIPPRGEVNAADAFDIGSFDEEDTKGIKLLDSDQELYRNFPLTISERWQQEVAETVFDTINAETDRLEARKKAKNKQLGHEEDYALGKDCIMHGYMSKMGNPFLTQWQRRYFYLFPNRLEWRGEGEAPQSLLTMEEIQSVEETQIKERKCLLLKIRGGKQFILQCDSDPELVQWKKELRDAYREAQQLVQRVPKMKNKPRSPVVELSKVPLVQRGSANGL
# UniProt Q8NEC7: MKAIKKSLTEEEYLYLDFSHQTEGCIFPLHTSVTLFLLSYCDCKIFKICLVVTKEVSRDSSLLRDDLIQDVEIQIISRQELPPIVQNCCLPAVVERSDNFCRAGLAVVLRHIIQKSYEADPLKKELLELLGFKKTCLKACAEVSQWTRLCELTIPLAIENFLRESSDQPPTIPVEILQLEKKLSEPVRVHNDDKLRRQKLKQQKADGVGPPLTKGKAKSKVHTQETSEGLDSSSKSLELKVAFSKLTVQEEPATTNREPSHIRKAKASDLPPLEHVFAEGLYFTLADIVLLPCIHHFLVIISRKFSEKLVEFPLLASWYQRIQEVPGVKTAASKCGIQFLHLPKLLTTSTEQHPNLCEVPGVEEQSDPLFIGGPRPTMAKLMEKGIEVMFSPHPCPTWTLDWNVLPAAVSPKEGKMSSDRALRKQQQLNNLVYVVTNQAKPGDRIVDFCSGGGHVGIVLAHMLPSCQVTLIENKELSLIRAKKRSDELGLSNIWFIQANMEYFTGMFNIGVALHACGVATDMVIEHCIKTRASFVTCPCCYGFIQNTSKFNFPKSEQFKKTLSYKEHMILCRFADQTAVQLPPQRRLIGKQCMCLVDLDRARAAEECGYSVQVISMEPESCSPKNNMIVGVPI
# UniProt Q92664: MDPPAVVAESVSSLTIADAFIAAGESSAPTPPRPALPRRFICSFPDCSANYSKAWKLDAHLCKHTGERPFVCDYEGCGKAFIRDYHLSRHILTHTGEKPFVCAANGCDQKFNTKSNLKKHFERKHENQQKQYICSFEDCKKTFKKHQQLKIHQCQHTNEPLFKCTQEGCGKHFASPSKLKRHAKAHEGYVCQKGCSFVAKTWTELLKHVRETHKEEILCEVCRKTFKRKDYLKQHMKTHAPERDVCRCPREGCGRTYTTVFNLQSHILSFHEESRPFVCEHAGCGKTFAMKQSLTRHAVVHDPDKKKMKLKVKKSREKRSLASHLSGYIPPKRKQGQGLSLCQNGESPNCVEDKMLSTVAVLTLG
# UniProt Q00403, whole entry, looked up: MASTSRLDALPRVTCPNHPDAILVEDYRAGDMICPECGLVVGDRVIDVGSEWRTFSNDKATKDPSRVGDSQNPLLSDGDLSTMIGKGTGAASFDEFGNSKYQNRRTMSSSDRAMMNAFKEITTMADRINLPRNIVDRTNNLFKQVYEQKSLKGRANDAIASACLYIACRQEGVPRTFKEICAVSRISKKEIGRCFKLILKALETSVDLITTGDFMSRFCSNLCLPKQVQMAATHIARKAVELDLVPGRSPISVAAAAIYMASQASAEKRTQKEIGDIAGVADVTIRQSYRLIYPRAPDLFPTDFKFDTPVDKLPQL
# UniProt P78347: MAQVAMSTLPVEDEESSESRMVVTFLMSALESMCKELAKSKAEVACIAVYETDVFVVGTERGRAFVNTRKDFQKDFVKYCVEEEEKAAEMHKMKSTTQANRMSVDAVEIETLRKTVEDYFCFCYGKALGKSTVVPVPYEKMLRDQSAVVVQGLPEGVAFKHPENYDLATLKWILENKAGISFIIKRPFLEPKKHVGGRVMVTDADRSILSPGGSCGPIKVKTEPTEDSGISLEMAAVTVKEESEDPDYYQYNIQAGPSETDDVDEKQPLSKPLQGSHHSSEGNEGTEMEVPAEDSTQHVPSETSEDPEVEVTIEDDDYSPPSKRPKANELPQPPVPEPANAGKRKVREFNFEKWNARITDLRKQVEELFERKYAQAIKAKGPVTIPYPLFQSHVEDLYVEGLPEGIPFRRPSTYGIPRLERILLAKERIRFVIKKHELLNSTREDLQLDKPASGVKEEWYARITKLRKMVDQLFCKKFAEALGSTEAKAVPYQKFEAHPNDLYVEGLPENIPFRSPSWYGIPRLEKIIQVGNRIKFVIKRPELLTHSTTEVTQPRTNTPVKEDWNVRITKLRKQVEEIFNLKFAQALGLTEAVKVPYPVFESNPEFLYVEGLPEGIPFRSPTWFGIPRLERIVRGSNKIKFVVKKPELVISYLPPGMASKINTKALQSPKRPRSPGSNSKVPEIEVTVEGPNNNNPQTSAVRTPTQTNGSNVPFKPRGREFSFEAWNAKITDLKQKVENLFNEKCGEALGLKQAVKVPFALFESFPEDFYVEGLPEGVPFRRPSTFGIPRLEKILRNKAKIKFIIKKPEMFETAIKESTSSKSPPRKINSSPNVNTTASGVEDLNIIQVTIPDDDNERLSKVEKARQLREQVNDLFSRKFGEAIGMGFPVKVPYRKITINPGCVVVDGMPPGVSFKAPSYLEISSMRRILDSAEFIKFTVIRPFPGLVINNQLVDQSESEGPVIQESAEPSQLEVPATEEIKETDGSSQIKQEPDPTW
# UniProt P29083: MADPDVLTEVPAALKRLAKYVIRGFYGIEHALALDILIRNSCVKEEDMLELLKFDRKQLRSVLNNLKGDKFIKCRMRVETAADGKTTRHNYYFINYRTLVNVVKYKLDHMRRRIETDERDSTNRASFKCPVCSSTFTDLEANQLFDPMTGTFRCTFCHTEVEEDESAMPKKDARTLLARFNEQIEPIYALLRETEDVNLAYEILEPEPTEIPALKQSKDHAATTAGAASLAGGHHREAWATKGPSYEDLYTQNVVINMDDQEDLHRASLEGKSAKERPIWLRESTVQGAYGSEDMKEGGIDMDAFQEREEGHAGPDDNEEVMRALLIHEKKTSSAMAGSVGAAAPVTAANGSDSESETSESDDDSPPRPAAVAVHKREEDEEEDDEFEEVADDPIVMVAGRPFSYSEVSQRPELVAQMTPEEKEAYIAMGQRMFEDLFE
# UniProt P48637: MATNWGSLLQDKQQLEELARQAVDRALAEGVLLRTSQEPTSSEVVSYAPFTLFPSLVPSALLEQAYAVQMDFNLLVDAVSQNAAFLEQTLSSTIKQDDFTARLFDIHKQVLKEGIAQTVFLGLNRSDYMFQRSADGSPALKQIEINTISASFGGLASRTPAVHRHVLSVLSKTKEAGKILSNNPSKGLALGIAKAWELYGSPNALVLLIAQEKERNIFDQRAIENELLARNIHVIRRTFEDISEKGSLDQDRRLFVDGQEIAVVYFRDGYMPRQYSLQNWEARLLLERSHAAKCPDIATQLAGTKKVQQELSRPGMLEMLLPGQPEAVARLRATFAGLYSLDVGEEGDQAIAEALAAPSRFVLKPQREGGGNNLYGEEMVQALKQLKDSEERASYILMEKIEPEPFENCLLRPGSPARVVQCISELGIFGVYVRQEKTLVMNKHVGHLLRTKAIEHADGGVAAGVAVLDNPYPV
# UniProt Q14687: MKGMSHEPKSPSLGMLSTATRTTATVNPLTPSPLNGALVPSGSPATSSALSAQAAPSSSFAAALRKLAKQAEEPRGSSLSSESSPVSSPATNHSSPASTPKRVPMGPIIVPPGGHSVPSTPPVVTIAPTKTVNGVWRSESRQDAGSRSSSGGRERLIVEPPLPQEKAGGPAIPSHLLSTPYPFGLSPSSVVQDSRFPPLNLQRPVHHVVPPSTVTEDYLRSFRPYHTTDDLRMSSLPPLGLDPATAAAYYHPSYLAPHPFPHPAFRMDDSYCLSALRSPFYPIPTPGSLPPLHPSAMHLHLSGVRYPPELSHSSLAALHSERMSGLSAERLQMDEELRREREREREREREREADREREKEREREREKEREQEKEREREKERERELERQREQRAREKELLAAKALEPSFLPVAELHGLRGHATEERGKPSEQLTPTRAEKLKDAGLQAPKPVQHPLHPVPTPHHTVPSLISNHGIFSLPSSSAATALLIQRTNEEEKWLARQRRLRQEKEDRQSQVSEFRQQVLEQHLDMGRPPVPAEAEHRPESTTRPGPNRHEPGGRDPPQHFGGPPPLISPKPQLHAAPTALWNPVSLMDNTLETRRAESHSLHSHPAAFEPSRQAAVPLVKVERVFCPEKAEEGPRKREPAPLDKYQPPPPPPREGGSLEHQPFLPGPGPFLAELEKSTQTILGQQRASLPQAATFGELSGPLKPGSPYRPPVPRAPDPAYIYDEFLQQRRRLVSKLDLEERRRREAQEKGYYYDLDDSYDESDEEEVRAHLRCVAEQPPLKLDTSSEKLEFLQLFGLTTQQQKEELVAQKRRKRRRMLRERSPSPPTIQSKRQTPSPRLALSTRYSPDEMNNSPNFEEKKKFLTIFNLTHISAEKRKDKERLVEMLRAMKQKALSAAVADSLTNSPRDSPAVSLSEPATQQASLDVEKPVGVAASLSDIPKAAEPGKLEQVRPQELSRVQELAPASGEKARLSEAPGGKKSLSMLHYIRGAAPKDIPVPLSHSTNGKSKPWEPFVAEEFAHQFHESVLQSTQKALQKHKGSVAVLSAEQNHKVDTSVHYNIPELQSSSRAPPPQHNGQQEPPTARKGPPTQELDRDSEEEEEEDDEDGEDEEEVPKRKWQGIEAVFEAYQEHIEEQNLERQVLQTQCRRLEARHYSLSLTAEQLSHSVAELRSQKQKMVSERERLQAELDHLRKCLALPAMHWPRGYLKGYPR
# UniProt Q8WW33: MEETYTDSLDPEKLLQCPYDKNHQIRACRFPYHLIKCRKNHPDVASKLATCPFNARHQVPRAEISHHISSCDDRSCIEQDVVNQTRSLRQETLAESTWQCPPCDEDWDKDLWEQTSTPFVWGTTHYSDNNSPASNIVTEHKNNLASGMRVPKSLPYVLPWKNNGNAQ
# UniProt Q96CS2: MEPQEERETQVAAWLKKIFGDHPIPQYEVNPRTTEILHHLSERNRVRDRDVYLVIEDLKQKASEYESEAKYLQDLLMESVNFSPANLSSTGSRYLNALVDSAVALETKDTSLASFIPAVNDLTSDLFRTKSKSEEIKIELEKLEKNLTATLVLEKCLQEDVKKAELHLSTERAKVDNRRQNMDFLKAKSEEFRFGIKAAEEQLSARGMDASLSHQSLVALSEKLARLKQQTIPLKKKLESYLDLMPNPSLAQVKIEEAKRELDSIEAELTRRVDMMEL
# UniProt Q9UBQ7: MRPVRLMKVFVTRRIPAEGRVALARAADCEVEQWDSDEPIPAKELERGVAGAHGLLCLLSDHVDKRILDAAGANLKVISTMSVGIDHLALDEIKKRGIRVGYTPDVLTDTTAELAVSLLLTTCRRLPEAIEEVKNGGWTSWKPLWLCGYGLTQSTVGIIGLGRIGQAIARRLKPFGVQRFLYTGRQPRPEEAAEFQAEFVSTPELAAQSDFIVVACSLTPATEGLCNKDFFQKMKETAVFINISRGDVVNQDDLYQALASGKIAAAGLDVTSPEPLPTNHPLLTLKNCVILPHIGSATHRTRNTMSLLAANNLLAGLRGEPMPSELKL
# UniProt Q9Y5Q8: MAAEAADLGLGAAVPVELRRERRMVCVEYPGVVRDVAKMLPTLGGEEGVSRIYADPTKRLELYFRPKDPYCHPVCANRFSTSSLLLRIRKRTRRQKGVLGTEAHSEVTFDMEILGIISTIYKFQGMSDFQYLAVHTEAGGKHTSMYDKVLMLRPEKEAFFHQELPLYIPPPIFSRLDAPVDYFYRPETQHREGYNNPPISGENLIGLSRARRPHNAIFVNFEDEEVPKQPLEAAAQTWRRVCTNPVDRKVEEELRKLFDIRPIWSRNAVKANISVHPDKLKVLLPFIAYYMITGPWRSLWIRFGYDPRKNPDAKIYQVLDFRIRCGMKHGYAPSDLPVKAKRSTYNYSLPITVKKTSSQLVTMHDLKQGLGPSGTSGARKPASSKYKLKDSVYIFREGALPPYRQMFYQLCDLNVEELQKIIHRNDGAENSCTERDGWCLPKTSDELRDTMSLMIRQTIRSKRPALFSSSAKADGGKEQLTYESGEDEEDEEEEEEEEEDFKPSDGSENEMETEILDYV
# The list shows a part of the results.
# Compound: CC1Cc2ccccc2N1C(=O)C1CCCN(C1)C(=O)CCl (mixture of isomers) [TRIM25 ligand 11 (diastereomer mixture)]
# Experiment: probe-labelled cysteine peptide fold change vs DMSO (competition) (log2 fold change); higher = less target engagement (more negative = stronger competition)
# Settings: THP-1, incubation time: 4 h
# 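Further: competitive chemoproteomic profiling in live THP-1 cells with an iodoacetamide desthiobiotin (IA-DTB) probe, comparing probe-labelled peptide intensities in compound-treated cells against DMSO-treated controls.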
Target,probe-labelled cysteine peptide fold change (10 µM),probe-labelled cysteine peptide fold change (50 µM)
GRK2_P25098_72_DFCLNHLEEARPLVEFYEEIK (UniProt P25098),0.0258,-0.0695
GSTCD_Q8NEC7_592_QCMCLVDLDR (UniProt Q8NEC7),-0.0719,-0.109
GSTM4_Q03013_174_IFEPNCLDAFPNLK (UniProt Q03013),0.295,0.161
GSR_P00390_102_LGGTCVNVGCVPK (UniProt P00390),0.0515,0.0119
GTF3A_Q92664_222_ETHKEEILCEVCR (UniProt Q92664),-0.0323,0.00437
GTF2B_Q00403_34_AGDMICPECGLVVGDR (UniProt Q00403),-0.0762,0.0694
GTF2I_P78347_34_MVVTFLMSALESMCK (UniProt P78347),-0.142,-0.099
GTF2E1_P29083_157_CTFCHTEVEEDESAMPK (UniProt P29083),0.016,0.142
GTF3C1_Q12789_42_VPPFPLPLEPCTQEFLWR (UniProt Q12789),0.234,0.326
GSS_P48637_409_IEPEPFENCLLRPGSPAR (UniProt P48637),0.0168,-0.0726
GSE1_Q14687_1151_QVLQTQCR (UniProt Q14687),-0.12,0.0342
GTPBP3_Q969Y2_46_CGIAVIR (UniProt Q969Y2),-0.0843,0.0463
GTSF1_Q8WW33_17_LLQCPYDK (UniProt Q8WW33),-0.185,-0.222
GTPBP4_Q9BZE4_174_TLLLCGYPNVGK (UniProt Q9BZE4),-0.0342,0.06
GTF3C2_Q8WUA4_291_QKPHCR (UniProt Q8WUA4),-0.189,-0.376
GTF2H4_Q92759_41_LYGHPATCLAVFR (UniProt Q92759),-0.0121,0.156
GTF3C3_Q9Y5Q9_239_QAIFCYTK (UniProt Q9Y5Q9),-0.0318,0.0142

Target,probe-labelled cysteine peptide fold change (10 µM),probe-labelled cysteine peptide fold change (50 µM)
HAT1_O14929_376_CLRPEELTNQMNQIEISMQHEQLEESFQELVEDYRR (UniProt O14929),0.131,-0.111
GPX4_P36969_134_ICVNGDDAHPLWK (UniProt P36969),0.156,0.234
GSE1_Q14687_1199_CLALPAMHWPR (UniProt Q14687),-0.0722,0.165
HAUS1_Q96CS2_156_CLQEDVK (UniProt Q96CS2),-0.0729,0.000721
GRHPR_Q9UBQ7_57_GVAGAHGLLCLLSDHVDK (UniProt Q9UBQ7),0.0838,-0.0355
GTF3C5_Q9Y5Q8_242_VCTNPVDR (UniProt Q9Y5Q8),0.0237,0.00476
GSS_P48637_294_CPDIATQLAGTKK (UniProt P48637),-0.121,-0.236
GTSF1_Q8WW33_76_SCIEQDVVNQTR (UniProt Q8WW33),-0.0275,-0.0476
GRHPR_Q9UBQ7_29_AADCEVEQWDSDEPIPAK (UniProt Q9UBQ7),-0.343,-0.234
HARS2_P49590_84_ILDLVISCFK (UniProt P49590),-0.36,-0.281
HAT1_O14929_168_ADMTCR (UniProt O14929),0.0223,0.0285
HAT1_O14929_27_CNTNTAIELK (UniProt O14929),-0.0371,-0.222
GRB2_P62993_198_GACHGQTGMFPR (UniProt P62993),0.00458,0.0172
GSPT1_P15170_387_GIEEEEILPGFILCDPNNLCHSGR (UniProt P15170),0.0401,0.0456
GTF2I_P78347_903_KITINPGCVVVDGMPPGVSFK (UniProt P78347),-0.0687,-0.179
GTF2H1_P32780_246_DLFAECAK (UniProt P32780),0.00813,0.0195
